Results on 42 sequences are retold here after PMC7819943, “Rice protein-binding microarrays: a tool to detect cis-acting elements near promoter regions in rice”.

Amino acid sequences for entries named in this document (tags omitted).
UniProt Q0JBA9, entry or part of it: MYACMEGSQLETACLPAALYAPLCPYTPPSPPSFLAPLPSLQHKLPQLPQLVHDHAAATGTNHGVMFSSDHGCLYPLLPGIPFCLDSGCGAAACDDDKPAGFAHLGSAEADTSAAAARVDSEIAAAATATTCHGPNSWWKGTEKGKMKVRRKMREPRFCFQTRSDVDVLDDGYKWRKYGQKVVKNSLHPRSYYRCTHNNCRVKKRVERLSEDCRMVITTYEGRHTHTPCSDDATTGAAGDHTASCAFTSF

This is one part of the list.

In the assay the target is OsWRKY34 (Oryza sativa, UniProt Q0JBA9 1-250). In words: protein-binding microarray (RPBM); PBS, 2% BSA, 51.3 ng/ul salmon testes DNA, 50 uM zinc acetate, 200 nM TF, 25 C, 1 h; high values mean tight binding. The note with it: protein: recombinant; tags: N-terminal polyhistidine and DsRed monomer fusion (pET32a); label: CyDye5-dUTP incorporated in the synthesized complementary strand; 3' TTTTT single-stranded linker to array surface; dsDNA, one strand shown. In short, it runs like this:
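Polyhistidine-tagged DsRed fusions of transcription factors, joined at the N-terminus, were expressed in E. coli BL21-CodonPlus and isolated on Ni–NTA. They were incubated at 200 nM for 1 h at 25 °C on a custom Agilent array, double-stranded and BSA-blocked, in PBS with 2% BSA, salmon testes DNA and 50 µM zinc acetate. The binding signal is per-feature fluorescence intensity (arbitrary units) read on an Axon 4000B scanner after washing.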
For the sequence “TTGTAATTCTTTACCATTCTGCATCTTGGCTACAGAGTTTCGGAGTCACCTAGTGCAG”, the binding signal was 8470 fluorescence intensity (a.u.).
On to “ATTTTCTTATCTTTTCATAGACTACGACGTCACCACTATCCGGAGTCACCTAGTGCAG”, for which the binding signal was 8320 fluorescence intensity (a.u.).
The same measure for “TGTGCCGTGACTCGATGTGCTCCTCCATCTCTTGCTGCAACGGAGTCACCTAGTGCAG”: 8170 fluorescence intensity (a.u.); for “GAACGTATCCTACGCACAAAGTCTTCTCGTGTACACGCCGCGGAGTCACCTAGTGCAG”: 8120 fluorescence intensity (a.u.).
As to “TATCCGTGCGCCTCAACTTTCCCACCACCACCGCGGTCTCCGGAGTCACCTAGTGCAG”, the binding signal is 9540 fluorescence intensity (a.u.).
For the sequence “GATTTCTTTCTGCCGTCATCTTCGAATATCCATGACTCGCCGGAGTCACCTAGTGCAG”, the binding signal is 9800 fluorescence intensity (a.u.).
The same measure for “CAGCTTGTCAATCGGGTCAACACGCCACGTCGGATGAAATCGGAGTCACCTAGTGCAG”: 8210 fluorescence intensity (a.u.); for “GGTGGCTTGGCGCTTTGATCTGATGCTGGTTGTAGTTGCTCGGAGTCACCTAGTGCAG”: 8560 fluorescence intensity (a.u.).
“TTATTCCTAGGTGAACTATTATTTTTTCTTTTTCTATTTTCGGAGTCACCTAGTGCAG”: the binding signal is 11700 fluorescence intensity (a.u.).
The same measure for “TCCATATATTCACATGTACGCAATCATATAATTCATCCAACGGAGTCACCTAGTGCAG”: 8240 fluorescence intensity (a.u.).
In the case of “TACGAATAATCAGCCGTTTCACCACGCTTACTCTCTGAGACGGAGTCACCTAGTGCAG” it was 8150 fluorescence intensity (a.u.); in that of “TTCGGCAATCTAGCCGGCGTCCCAACTCCTCGCTGCCGCACGGAGTCACCTAGTGCAG”, 8060 fluorescence intensity (a.u.); in that of “ACGCAGGCCGTCCCGTTCCGTTTCGTTTCCCCTGCCCGAGCGGAGTCACCTAGTGCAG”, 8300 fluorescence intensity (a.u.).
The same measure for “ATTGAAACATGATCCGAGTCATAGCCTGACTGGAATTCTTCGGAGTCACCTAGTGCAG”: 9120 fluorescence intensity (a.u.); for “ACCTCGCCGCCTCCTCCGTTGCCGGCGATCCCGGCACATGCGGAGTCACCTAGTGCAG”: 9070 fluorescence intensity (a.u.).
Take “CATAGTAGGCCATAAATTTGCTACCTTTTGTTCTTGCTTTCGGAGTCACCTAGTGCAG”: the binding signal was 8500 fluorescence intensity (a.u.).
As to “AAAAAATTGGCATTTCTTCGCTCTAGACACAATTCCTGTGCGGAGTCACCTAGTGCAG”, the binding signal is 10600 fluorescence intensity (a.u.).
In the case of “TTGTCTTGTCTGTCTGGTTGGCCGGCCGGGAGTCGCGCGCCGGAGTCACCTAGTGCAG” it was 8620 fluorescence intensity (a.u.); in that of “TGCTCCGCTCGGCTGCAGCTGCCGCCGCTGTTACGGATTACGGAGTCACCTAGTGCAG”, 8230 fluorescence intensity (a.u.).
As to “GTGTTGCGCCTATAAATGTCGTTGATTGCCGCATCATTACCGGAGTCACCTAGTGCAG”, the binding signal is 8360 fluorescence intensity (a.u.).
As for “CTTTTCTCCCTTCTTTCTCTTTCACGTCATATATGATAATCGGAGTCACCTAGTGCAG”, the binding signal is 8530 fluorescence intensity (a.u.).
In the case of “GGAGTACCACATAGCCGTTCAGCTCTAGTCAAACGTCATTCGGAGTCACCTAGTGCAG” it was 8200 fluorescence intensity (a.u.).
Regarding “AGGGTGGGTGGAAAGATTACACATGAAAATATGACAAGAACGGAGTCACCTAGTGCAG”, the binding signal is 8620 fluorescence intensity (a.u.).
For “AATTATCTTGAAGCACCTCAACTCAACCTGATGTCATACACGGAGTCACCTAGTGCAG”, the binding signal is 8370 fluorescence intensity (a.u.).
In the case of “TATTTACCGTTTCTGTTTGTCGTCGCCTGCGCGCGACGCTCGGAGTCACCTAGTGCAG” it was 9660 fluorescence intensity (a.u.); in that of “CAGGTGGTACAGAGCTTATCATTACAATTGCATGGTCAATCGGAGTCACCTAGTGCAG”, 10200 fluorescence intensity (a.u.); in that of “TAGGTGGTGTTTGGTTTATGGATCAGGTGGGTTGGGTTGGCGGAGTCACCTAGTGCAG”, 8740 fluorescence intensity (a.u.).
On to “CCATATATGCTCTTCACACTACTTGCATATTTTGGTTATTCGGAGTCACCTAGTGCAG”, for which the binding signal was 10100 fluorescence intensity (a.u.).
Turning to “CTTCTCTCGCCGCCCGCGCGCGCGCTCTCCGGCGACCATGCGGAGTCACCTAGTGCAG”, the binding signal is 8640 fluorescence intensity (a.u.).
In the case of “GTGACACCCAGAAATTTTCTTTTCGCGATTTAAACACATACGGAGTCACCTAGTGCAG” it was 10100 fluorescence intensity (a.u.); in that of “AGAGGCCTGAACTAGTATAATCCTTGTCTTTTGTCTGCTTCGGAGTCACCTAGTGCAG”, 10600 fluorescence intensity (a.u.); in that of “GTGCTCGAGTGCTCGACCAGCCTTCGTCTCCGCTCGCCTCCGGAGTCACCTAGTGCAG”, 8620 fluorescence intensity (a.u.).
In the case of “GCTGTATCCCAGAAGTTACTGTACAGTTTGCCAATTTCATCGGAGTCACCTAGTGCAG” it was 9450 fluorescence intensity (a.u.).
In the case of “ATTTTTGATCCCGTTGACGCTCTAGTATGTTTCTTCTCGTCGGAGTCACCTAGTGCAG” it was 10200 fluorescence intensity (a.u.); in that of “CTTTAATAGTATAGCCAACTACTACCTCGGAATCACCTATCGGAGTCACCTAGTGCAG”, 20300 fluorescence intensity (a.u.).
Consider “ACTCTCTCTCTCTCTCTGCTTCTTCTTGTGTTGTGCTTGTCGGAGTCACCTAGTGCAG”, for which the binding signal was 9800 fluorescence intensity (a.u.).
In the case of “ATGGTTCGTCTTGTTCGTATATTTTTTTTATGGTGCATATCGGAGTCACCTAGTGCAG” it was 11700 fluorescence intensity (a.u.).
In the case of “CAAATGTTCCAATGACTTGGATTCTTTTTCATAATTATGTCGGAGTCACCTAGTGCAG” it was 8380 fluorescence intensity (a.u.).
In the case of “GCCACATTACGCTGATCTTTCAGATTCCCTTTTCGTCAGACGGAGTCACCTAGTGCAG” it was 9530 fluorescence intensity (a.u.); in that of “ATTGGGCTCATTTCATCCCTTCCAAATTCTACCTCCCAAACGGAGTCACCTAGTGCAG”, 8700 fluorescence intensity (a.u.); in that of “TCTGAAGCGGTGTGTGTTTTCCCAAGTAGCAACCAACCTGCGGAGTCACCTAGTGCAG”, 8580 fluorescence intensity (a.u.).
Regarding “ATTTGCATGCCGTCTTATGCACGCATTCTACTAATACCTCCGGAGTCACCTAGTGCAG”, the binding signal is 8770 fluorescence intensity (a.u.).
